# Data as given in PubChem BioAssay (EPA / NIEHS).
# Sequences of proteins named here, by UniProt entry; tags and fusion partners are left off. A change or cut given only in a name is not applied to a line headed by its entry.
# UniProt P03372, whole entry, looked up: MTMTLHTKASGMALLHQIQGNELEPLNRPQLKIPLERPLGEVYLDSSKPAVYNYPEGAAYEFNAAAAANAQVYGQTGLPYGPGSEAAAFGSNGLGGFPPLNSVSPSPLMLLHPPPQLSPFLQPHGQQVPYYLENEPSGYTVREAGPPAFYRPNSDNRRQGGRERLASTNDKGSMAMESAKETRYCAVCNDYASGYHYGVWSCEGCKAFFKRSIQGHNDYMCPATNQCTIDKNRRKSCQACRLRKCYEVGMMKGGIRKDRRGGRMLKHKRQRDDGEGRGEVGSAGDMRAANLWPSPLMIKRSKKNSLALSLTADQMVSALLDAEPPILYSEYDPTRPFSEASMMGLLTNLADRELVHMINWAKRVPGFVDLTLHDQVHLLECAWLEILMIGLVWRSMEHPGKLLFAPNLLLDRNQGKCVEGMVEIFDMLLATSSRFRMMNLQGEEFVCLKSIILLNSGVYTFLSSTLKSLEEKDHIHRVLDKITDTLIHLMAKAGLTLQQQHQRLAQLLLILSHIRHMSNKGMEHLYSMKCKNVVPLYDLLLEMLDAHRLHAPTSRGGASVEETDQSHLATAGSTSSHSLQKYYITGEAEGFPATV
# UniProt P33261, whole entry, looked up: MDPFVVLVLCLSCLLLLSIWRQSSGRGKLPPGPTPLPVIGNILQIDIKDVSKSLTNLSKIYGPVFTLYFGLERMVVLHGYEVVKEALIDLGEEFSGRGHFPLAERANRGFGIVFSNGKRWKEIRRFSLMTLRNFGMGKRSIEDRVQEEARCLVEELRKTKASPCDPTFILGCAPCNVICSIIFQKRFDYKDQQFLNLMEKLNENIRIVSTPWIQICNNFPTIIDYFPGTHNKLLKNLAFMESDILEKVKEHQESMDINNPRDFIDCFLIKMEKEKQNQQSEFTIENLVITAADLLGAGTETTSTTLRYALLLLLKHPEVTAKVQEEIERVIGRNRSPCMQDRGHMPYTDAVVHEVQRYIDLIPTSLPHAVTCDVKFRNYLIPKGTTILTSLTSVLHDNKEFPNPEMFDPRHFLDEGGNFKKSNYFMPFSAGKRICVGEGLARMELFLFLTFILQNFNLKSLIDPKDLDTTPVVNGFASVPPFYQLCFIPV
# UniProt P06241, whole entry, looked up: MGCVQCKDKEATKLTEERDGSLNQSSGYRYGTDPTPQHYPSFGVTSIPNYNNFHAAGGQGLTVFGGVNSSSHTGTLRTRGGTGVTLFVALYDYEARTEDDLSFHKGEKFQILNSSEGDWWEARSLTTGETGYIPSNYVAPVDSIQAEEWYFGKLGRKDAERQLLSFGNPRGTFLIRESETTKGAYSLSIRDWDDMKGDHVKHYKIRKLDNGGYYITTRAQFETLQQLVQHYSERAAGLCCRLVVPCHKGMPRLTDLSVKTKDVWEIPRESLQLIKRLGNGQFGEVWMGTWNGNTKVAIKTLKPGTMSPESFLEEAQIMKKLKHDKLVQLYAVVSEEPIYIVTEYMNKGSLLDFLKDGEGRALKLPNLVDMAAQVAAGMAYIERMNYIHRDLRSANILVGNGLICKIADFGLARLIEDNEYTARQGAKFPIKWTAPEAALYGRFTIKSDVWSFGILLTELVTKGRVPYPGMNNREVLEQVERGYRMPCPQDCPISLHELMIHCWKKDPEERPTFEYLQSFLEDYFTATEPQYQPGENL
# UniProt P29074: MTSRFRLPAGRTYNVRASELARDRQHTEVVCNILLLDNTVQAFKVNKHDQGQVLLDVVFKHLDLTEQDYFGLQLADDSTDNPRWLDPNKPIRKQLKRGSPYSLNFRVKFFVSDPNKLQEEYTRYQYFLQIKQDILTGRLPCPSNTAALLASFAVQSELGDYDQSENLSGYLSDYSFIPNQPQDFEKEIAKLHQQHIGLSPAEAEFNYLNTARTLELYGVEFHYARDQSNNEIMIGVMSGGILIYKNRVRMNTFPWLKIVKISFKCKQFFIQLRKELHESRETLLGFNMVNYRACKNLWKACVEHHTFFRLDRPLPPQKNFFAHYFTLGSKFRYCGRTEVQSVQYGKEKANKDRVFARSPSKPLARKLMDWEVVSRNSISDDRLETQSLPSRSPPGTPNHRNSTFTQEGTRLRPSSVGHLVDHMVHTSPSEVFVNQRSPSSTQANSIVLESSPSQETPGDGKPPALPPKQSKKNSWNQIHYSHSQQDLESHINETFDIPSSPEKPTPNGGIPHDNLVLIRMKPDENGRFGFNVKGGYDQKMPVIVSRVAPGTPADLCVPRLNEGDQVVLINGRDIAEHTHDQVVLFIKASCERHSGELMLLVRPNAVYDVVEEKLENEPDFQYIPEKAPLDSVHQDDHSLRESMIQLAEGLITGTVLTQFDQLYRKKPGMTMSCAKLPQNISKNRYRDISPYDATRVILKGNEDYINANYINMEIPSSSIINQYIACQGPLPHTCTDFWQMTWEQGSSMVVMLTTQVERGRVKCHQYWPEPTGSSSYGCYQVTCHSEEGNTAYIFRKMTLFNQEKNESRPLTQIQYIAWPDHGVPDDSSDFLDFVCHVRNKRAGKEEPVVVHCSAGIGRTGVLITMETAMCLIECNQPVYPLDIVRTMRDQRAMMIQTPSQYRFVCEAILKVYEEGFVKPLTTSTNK
# UniProt O15379: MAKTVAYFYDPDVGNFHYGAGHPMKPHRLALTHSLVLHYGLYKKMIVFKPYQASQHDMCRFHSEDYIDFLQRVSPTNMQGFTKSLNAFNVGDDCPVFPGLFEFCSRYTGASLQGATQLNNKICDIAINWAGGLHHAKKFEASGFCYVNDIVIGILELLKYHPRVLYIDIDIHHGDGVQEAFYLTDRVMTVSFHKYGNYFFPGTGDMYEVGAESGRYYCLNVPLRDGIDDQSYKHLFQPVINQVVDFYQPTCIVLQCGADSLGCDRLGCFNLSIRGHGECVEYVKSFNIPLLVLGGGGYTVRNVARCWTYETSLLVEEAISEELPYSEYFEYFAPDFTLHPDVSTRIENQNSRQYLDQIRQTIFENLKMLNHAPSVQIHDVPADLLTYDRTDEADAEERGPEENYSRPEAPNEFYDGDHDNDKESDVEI
# UniProt P42336, whole entry, looked up: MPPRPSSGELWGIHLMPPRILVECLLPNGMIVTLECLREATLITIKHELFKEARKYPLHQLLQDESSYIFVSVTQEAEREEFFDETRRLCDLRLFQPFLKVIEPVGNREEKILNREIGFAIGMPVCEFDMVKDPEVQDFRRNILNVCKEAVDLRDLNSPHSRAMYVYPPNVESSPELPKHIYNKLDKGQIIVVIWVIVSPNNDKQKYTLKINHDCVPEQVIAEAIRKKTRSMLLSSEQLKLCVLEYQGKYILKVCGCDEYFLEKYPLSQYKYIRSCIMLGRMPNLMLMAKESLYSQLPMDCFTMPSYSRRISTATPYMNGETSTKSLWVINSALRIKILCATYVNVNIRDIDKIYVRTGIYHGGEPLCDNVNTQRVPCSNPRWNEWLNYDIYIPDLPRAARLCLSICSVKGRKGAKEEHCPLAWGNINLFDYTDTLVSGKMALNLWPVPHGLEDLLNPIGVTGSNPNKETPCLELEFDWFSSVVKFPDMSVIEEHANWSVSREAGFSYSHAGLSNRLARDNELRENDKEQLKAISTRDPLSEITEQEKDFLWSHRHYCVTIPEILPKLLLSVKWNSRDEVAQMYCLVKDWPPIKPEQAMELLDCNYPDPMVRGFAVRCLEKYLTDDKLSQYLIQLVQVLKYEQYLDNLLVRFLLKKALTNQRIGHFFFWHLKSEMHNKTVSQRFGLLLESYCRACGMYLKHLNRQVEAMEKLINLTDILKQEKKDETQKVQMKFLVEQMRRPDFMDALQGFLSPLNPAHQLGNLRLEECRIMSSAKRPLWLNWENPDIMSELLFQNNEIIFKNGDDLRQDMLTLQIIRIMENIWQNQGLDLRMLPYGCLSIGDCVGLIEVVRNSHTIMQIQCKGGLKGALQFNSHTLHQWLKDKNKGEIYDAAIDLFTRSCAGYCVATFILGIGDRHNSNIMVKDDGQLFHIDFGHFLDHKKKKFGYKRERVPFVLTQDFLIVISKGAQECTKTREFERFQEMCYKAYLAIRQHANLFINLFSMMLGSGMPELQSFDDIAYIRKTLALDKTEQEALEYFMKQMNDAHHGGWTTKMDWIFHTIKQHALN
# UniProt P10586, whole entry, looked up: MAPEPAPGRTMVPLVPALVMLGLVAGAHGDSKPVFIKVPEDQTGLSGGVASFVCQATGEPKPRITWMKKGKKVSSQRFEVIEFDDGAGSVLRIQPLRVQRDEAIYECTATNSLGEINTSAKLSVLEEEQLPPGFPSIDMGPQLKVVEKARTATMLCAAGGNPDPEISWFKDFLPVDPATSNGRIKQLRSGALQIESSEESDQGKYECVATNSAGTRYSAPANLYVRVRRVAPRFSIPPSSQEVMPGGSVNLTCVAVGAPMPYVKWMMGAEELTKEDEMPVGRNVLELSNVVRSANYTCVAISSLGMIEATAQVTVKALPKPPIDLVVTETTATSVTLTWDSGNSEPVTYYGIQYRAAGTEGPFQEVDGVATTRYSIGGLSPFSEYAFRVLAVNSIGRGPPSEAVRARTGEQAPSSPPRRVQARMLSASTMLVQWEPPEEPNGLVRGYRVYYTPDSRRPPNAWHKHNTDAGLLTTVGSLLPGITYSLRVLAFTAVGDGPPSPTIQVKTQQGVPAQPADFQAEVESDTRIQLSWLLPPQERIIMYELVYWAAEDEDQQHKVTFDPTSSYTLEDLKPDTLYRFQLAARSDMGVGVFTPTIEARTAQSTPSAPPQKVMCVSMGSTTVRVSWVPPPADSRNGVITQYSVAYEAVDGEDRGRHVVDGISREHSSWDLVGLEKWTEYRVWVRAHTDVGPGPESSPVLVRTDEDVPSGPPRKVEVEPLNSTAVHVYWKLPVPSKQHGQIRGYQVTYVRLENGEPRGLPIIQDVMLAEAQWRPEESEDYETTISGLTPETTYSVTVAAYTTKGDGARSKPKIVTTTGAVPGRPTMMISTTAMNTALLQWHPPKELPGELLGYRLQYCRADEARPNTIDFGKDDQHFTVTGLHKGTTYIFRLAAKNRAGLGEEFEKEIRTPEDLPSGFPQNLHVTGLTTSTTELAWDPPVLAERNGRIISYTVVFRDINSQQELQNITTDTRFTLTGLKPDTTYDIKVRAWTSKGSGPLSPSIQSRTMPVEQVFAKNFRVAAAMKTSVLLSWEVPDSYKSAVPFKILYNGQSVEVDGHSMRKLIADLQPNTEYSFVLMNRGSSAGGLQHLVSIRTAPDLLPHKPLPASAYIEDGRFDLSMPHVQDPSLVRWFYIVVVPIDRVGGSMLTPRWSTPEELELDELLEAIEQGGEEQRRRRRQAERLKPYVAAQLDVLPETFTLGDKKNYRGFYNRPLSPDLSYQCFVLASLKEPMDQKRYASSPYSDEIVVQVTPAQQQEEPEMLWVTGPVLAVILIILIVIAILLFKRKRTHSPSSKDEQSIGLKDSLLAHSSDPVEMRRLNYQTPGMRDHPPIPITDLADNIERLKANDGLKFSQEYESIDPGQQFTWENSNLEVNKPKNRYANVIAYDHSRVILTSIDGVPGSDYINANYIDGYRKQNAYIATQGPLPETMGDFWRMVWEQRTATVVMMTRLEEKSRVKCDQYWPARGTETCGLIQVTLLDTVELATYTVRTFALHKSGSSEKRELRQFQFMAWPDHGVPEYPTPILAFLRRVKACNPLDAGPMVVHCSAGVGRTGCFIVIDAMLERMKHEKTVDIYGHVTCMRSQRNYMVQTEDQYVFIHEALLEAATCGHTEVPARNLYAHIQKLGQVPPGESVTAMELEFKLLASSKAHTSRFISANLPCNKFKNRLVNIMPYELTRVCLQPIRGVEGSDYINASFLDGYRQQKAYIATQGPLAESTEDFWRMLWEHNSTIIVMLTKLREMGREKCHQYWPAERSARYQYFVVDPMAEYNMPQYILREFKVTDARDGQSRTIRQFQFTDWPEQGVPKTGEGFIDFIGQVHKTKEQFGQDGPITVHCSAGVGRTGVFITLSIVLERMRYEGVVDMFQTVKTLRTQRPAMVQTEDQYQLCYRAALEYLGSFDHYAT
# UniProt P49137, whole entry, looked up: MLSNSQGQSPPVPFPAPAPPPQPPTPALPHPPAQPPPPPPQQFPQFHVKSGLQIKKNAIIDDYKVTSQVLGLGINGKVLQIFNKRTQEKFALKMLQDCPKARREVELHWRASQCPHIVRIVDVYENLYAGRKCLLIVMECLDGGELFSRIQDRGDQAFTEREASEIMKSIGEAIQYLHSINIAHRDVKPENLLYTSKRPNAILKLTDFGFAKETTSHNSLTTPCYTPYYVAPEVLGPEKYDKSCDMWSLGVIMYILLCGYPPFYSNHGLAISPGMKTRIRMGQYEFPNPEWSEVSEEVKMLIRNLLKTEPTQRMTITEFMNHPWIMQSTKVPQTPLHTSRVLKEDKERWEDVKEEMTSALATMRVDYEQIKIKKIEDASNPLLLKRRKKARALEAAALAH
# Inconclusive means that the source gave no clear call. Such entries were picked first, then a sample of the others. For some of these results: Potencies beside an inconclusive call are fits to weak or partial responses and may not hold up. Activity calls are given as the source filed them. Rule for the calls: active = hit-call score of the fitted dose curve at least 0.9, where 1 is the maximum; inconclusive = response in the unintended direction; inactive = score below 0.9.
# Tests used:
# AR (gene 367) = AR (gene 367) (UniProt P10275); assay: ACEA_AR_antagonist_80hr: ACEA Biosciences xCELLigence Real-Time Cell Analysis on Androgen Receptor Antagonism for Proliferation (AID 2283787);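 note: 22Rv1 human prostate cancer cells with growth followed by electrical impedance; hits lower the impedance growth signal relative to DMSO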
# How it was run: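 Impedance readout (RT-CES), 80 h post-dose; loss-of-signal vs DMSO baseline. 22Rv1 cells in assay medium. Compounds: 8-pt 1:4 series, max 100 uM final, up to 0.5% DMSO; n = 2.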
# [1] = molecular target: Ratio of Nucleoli Translocation and Cytoplasm, AR (gene 367) (UniProt P10275); assay: UPITT_HCI_U2OS_AR_TIF2_Nucleoli_Cytoplasm_Ratio_Agonist: University of Pittsburgh U2OS Androgen Receptor-Transcriptional Intermediary Factor 2 (AR-TIF2) Agonism High Content Imaging Assay for Ratio of Nucleoli Translocation and Cytoplasm (AID 2284000);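 note: hits raise the red nucleolar to cytoplasm ratio above vehicle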
# How it was run: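 U2OS cells expressing RFP-tagged human AR and GFP-tagged TIF2 were imaged by high-content fluorescence microscopy. The endpoint is the ratio of nucleolar to cytoplasmic red fluorescence, fitted for gain of signal relative to DMSO. Concentration-response spanned 0.195 to 50 uM final (0.5% DMSO).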
# [2] = molecular target: Estrogen receptor (Homo sapiens) (UniProt P03372); assay: OT_ER_ERaERa_0480: Odyssey Thera (OT) 8-hour HEK293T Protein-Complementation Assay for Estrogen Receptor-alpha/-alpha Homodimer (AID 2283351);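 note: rise in fluorescence from reassembled reporter fragments on ERα LBD homodimer in nucleus or whole cell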
# How it was run: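 HEK293T, stable ERα LBD (aa 310-547) PCA homodimer; 8 h compound exposure; fluorescence intensity, laser scanning cytometer; positive fitting direction, DMSO baseline.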
# [3] = Tanguay_ZF_120hpf_PFIN_legacy: (Legacy) Oregon State University Tanguay Lab 120 Hour Post-fertilization zebrafish Assay for Pectoral Fin Malformation (AID 2283648);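 note: each larva judged yes or no for fin defect by brightfield with dead larvae skipped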
# How it was run: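 Tropical 5D wild-type embryos, dechorionated with pronase at 4 hpf, were placed singly in wells at 6 hpf and statically exposed until 120 hpf at 28C, sealed and dark, with 0.64% (vol/vol) final DMSO; pectoral fin malformation scored present/absent.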
# [4] = ATG_Hpa5_TRANS: Attagene TRANS-FACTORIAL HepG2 Assay for human GAL4-Hpa5 Hepatocyte Transcription Factor Basal Promoter (AID 2282975); settings: HepG2 Attagene GAL4-Hpa5 transcription reporter;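 for outcome: hits are increases in reporter mRNA over DMSO baseline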
# How it was run: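 Basal-promoter GAL4 background control within the HepG2 trans-factorial panel of transiently transfected reporter units. Reporter mRNA is measured 24 h after dosing by RT-PCR and capillary electrophoresis, fitted for gain of signal versus DMSO.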
# [5] = read-out: xenobiotic metabolism (CYP2C9), CYP2C9 (gene 1559); assay: CLD_CYP2C9_6hr: CellzDirect (CLD) Gene Expression Assay for xenobiotic metabolism (CYP2C9) at 6 hours (AID 2283664)
# How it was run: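 Primary human hepatocytes dosed daily with test chemicals at multiple concentrations; harvested at 6 h. CYP2C9 mRNA induction measured by qNPA chemiluminescence. Gain of signal fitted against 0.2% DMSO vehicle; cytotoxicity annotated from phase-contrast morphology.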
# [6] = CLD_ACTIN_24hr: CellzDirect (CLD) Gene Expression Assay for Baseline Control (Actin) at 24 hours (AID 2283670)
# How it was run: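 Primary human hepatocytes dosed over multiple concentrations with 0.2% DMSO vehicle; actin mRNA measured at 24 h by qNPA chemiluminescence. Background control endpoint, fitted as gain of signal versus DMSO.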
# [7] = read-out: Cytochrome P450 2C19 (Homo sapiens) (UniProt P33261); assay: CLD_CYP2C19_24hr: CellzDirect (CLD) Gene Expression Assay for xenobiotic metabolism (CYP2C19) at 24 hours (AID 2283687)
# How it was run: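 Primary human hepatocytes (two donor preparations) dosed daily with fresh test chemical in 0.2% DMSO vehicle; CYP2C19 mRNA induction measured at 24 h by quantitative nuclease protection assay with chemiluminescence, fitted for gain of signal versus DMSO.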
# [8] = Tanguay_ZF_120hpf_OTIC_legacy: (Legacy) Oregon State University Tanguay Lab 120 Hour Post-fertilization zebrafish Assay for Otic Vesicle Malformation (AID 2283639)
# How it was run: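 Embryos from 5D wild-type adults exposed in plates; DMSO 0.64% v/v final. Sealed, light-protected, 28C, static to 120 hpf. Otic vesicle malformation recorded as binary endpoint; gain-of-signal fitted vs DMSO.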
# [9] = molecular target: human FYN Proto-Oncogene, Src family Tyrosine Kinase (Fyn), FYN (gene 2534) (UniProt P06241); assay: NVS_ENZ_hFyn: NovaScreen (NVS) Enzymatic Assay for human FYN Proto-Oncogene, Src family Tyrosine Kinase (Fyn) (AID 2283161)
# How it was run: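 Recombinant enzyme with fluorescent substrate, product separated by electrophoretic mobility shift; read 1 h after dosing. Duplicate 25 uM single-point screen, actives retested in concentration series; loss of signal vs DMSO.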
# [10] = molecular target: human Protein Tyrosine Phosphatase Non-receptor Type 4 (PTPN4), PTPN4 (gene 5775) (UniProt P29074); assay: NVS_ENZ_hPTPN4: NovaScreen (NVS) Enzymatic Assay for human Protein Tyrosine Phosphatase Non-receptor Type 4 (PTPN4) (AID 2283208)
# How it was run: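 Cell-free assay of PTPN4 expressed in Sf9 cells, using a fluorescent substrate with product separated by mobility shift; read 1.33 h after dosing. Single-point screen at 25 uM, then concentration-response up to 50 uM. Loss of signal relative to DMSO.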
# [11] = Tanguay_ZF_120hpf_EYE_legacy: (Legacy) Oregon State University Tanguay Lab 120 Hour Post-fertilization zebrafish Assay for Eye Malformation (AID 2283636);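 note: binary presence or absence of eye malformation scored by brightfield in 120 hpf larvae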
# How it was run: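 Dechorionated wild-type Tropical 5D zebrafish embryos were exposed statically from 6 hpf, one per well, to 120 hpf at 28C in sealed, foil-covered plates with 0.64% DMSO. Eye malformation was scored present/absent by brightfield microscopy against DMSO controls.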
# [12] = CCTE_Shafer_MEA_acute_LDH: CCTE's Lactate Dehydrogenase Assay for Cytotoxicity in the Neural Acute Assay, Shafer Lab (AID 2284086);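 note: active means LDH release rises above DMSO vehicle level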
# How it was run: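 Rat cortical neurons cultured on microelectrode arrays; baseline 40-min recording, compound added, second 40-min recording; medium then sampled for released LDH (colorimetric kit, 490 nm). DMSO = negative control.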
# [13] = NVS_IC_rCaBTZCHL: NovaScreen (NVS) Ion Channel Assay for Calcium Channel, Type L, Benzothiazepine Site (CaBTZCHL) (AID 2283337)
# How it was run: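 Scintillation counting of filter-bound radioligand gave the read-out, with reduced binding versus DMSO scored as activity. Membranes came from rat cortex and were read 1.5 h after compound addition. Chemicals were screened first in duplicate at 25 uM.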
# [14] = molecular target: Histone deacetylase 3 (Homo sapiens) (UniProt O15379); assay: NVS_ENZ_hHDAC3: NovaScreen (NVS) Enzymatic Assay for human Histone Deacetylase 3 (HDAC3) (AID 2283163)
# How it was run: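 Recombinant human HDAC3 with fluorescent substrate, 1 h after dosing; product separated from substrate by electrophoretic mobility shift and read by fluorescence. Primary screen at 25 uM in duplicate; actives (e.g. ≥30% inhibition) retested in concentration-response up to 50 uM.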
# [15] = molecular target: human Phosphoinositide 3-kinase alpha (PI3Ka), PIK3CA (gene 5290) (UniProt P42336); assay: NVS_ENZ_hPI3Ka: NovaScreen (NVS) Enzymatic Assay for human Phosphoinositide 3-kinase alpha (PI3Ka) (AID 2283196)
# How it was run: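 Enzyme activity as fluorescence after mobility-shift separation of substrate and product, 1 h reaction, recombinant human PI3Kα; concentration-response to 50 uM max for chemicals passing a 25 uM duplicate screen.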
# [16] = molecular target: human Protein Tyrosine Phosphatase Receptor Type F (PTPRF), PTPRF (gene 5792) (UniProt P10586); assay: NVS_ENZ_hPTPRF: NovaScreen (NVS) Enzymatic Assay for human Protein Tyrosine Phosphatase Receptor Type F (PTPRF) (AID 2283213)
# How it was run: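 Cell-free fluorescence enzyme assay with recombinant protein and substrate; product separated by electrophoretic mobility shift. Read 1 h after dosing, single 25 uM duplicate screen, then concentration-response up to 50 uM; loss of signal vs DMSO.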
# [17] = molecular target: Estrogen receptor (Homo sapiens) (UniProt P03372); assay: CCTE_Deisenroth_AIME_384WELL_LUC_Active: CCTE's 384-well Estrogen Receptor Transactivation Assay with AIME metabolic competence (ERTA luciferase; metabolism positive), Deisenroth Lab (AID 2284030)
# How it was run: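 Estrogenic luciferase signal in VM7Luc4E2 cells is measured at 24 hour, after chemicals have been preconditioned 2 hours with PB/BNF-induced rat hepatic S9 in alginate. Gain of signal is fitted relative to 17beta-estradiol, across 0.002 - 200 uM.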
# [18] = molecular target: human MAP Kinase-Activated Protein Kinase 2 (MAPKAPK2), MAPKAPK2 (gene 9261) (UniProt P49137); assay: NVS_ENZ_hMAPKAPK2: NovaScreen (NVS) Enzymatic Assay for human MAP Kinase-Activated Protein Kinase 2 (MAPKAPK2) (AID 2283178)
# How it was run: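 Cell-free recombinant human MAPKAPK2 activity measured by fluorescence with electrophoretic mobility shift separation of substrate and product, 1 hr after dosing. Loss of signal versus DMSO; primary screen at 25 uM, concentration-response up to 50 uM.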
# [19] = molecular target: human SRC Proto-Oncogene, Non-receptor Tyrosine Kinase (SRC), SRC (gene 6714) (UniProt P12931); assay: NVS_ENZ_hSRC: NovaScreen (NVS) Enzymatic Assay for human SRC Proto-Oncogene, Non-receptor Tyrosine Kinase (SRC) (AID 2283223)
# How it was run: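 Cell-free kinase activity assay with fluorescent substrate, product separated by electrophoretic mobility shift, read 1 h after dosing. Duplicate single point at 25 uM, then concentration-response up to 50 uM; loss of signal versus DMSO.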
compound,measurement,setting,value
CCC[Si](OC)(OC)OC,AC50,AR (gene 367),inconclusive: 16.6 µM
same,AC50,[1],inconclusive: 50 µM
CC(Cc1ccc(O)c(O)c1)C(C)Cc1ccc(O)c(O)c1 (centres undefined),AC50,[2],active: 11.9 µM
CCCCCOC(C)=O,AC50,[3],inconclusive: 99.8 µM
c1ccc2c(c1)-c1ccc3ccc4cccc5cc-2c1c3c45,outcome,[1],inactive
[Co],AC50,AR (gene 367),inconclusive: 4.17 µM
CC1CCCCC1,outcome,[1],inactive
CCC(O)=C1C(=O)CC(C(=O)O)CC1=O (centres undefined),AC50,[4],inconclusive: 0.866 µM
same,outcome,[5],inactive
same,AC50,[6],inconclusive: 2.14 µM
same,AC50,[7],inconclusive: 0.0255 µM
CCCCCCCCOC(=O)CCCCCCCCC(=O)OCCCCCCCC,outcome,[8],inactive
CCCN(CCC)c1c([N+](=O)[O-])cc(C(F)(F)F)c(N)c1[N+](=O)[O-],outcome,[4],inactive
same,AC50,[9],inconclusive: 2.74 µM
same,outcome,[10],inactive
same,AC50,[11],inconclusive: 202 µM
same,AC50,[5],inconclusive: 32.7 µM
same,AC50,[6],inconclusive: 20 µM
same,AC50,[7],inconclusive: 20 µM
same,outcome,[12],inactive
CCOC(=O)C1=NOC(c2ccccc2)(c2ccccc2)C1,AC50,[13],inconclusive: 25 µM
CCCCCCCC(=O)O,outcome,[9],inactive
same,AC50,[14],inconclusive: 25 µM
same,AC50,[15],inconclusive: 25 µM
same,AC50,[16],inconclusive: 25 µM
CCCCC/C=C\C/C=C\CCCCCCCC(=O)O,outcome,[17],inactive
CCCC(CCC)C(=O)O,outcome,[9],inactive
same,AC50,[18],inconclusive: 25 µM
same,outcome,[15],inactive
same,AC50,[10],inconclusive: 0.192 µM
same,AC50,[16],inconclusive: 0.00229 µM
same,outcome,[19],inactive
Cc1ccncc1,AC50,[13],inconclusive: 25 µM
CCc1ccc(C(c2ccc(CC)cc2)C(Cl)Cl)cc1,AC50,[15],inconclusive: 25 µM

# In a second layout: entries from further up
compound	measurement	setting	value
[Co]	AC50	AR (gene 367)	inconclusive: 4.17 µM
CC1CCCCC1	outcome	[1]	inactive
CCC(O)=C1C(=O)CC(C(=O)O)CC1=O (centres undefined)	AC50	[4]	inconclusive: 0.866 µM
same	outcome	[5]	inactive
same	AC50	[6]	inconclusive: 2.14 µM
same	AC50	[7]	inconclusive: 0.0255 µM
CCCCCCCCOC(=O)CCCCCCCCC(=O)OCCCCCCCC	outcome	[8]	inactive
CCCN(CCC)c1c([N+](=O)[O-])cc(C(F)(F)F)c(N)c1[N+](=O)[O-]	outcome	[4]	inactive
same	AC50	[9]	inconclusive: 2.74 µM
